Assay results taken from paper PMC9984195.
These are yes or no findings as the source states them, for the method shown. Binding seen in cells or lysates may run through a third protein. Here binding means that the protein was enriched with, or labelled near, the bait; the list need not be complete. Tags and fused reporters may be left off the sequences shown.

The chains behind the UniProt entries cited, without tags or fusion partners.
UniProt Q61025: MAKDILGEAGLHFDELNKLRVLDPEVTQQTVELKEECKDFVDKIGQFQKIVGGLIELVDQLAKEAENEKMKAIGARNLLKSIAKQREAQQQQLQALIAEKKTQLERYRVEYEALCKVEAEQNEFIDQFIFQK
UniProt Q45VK7: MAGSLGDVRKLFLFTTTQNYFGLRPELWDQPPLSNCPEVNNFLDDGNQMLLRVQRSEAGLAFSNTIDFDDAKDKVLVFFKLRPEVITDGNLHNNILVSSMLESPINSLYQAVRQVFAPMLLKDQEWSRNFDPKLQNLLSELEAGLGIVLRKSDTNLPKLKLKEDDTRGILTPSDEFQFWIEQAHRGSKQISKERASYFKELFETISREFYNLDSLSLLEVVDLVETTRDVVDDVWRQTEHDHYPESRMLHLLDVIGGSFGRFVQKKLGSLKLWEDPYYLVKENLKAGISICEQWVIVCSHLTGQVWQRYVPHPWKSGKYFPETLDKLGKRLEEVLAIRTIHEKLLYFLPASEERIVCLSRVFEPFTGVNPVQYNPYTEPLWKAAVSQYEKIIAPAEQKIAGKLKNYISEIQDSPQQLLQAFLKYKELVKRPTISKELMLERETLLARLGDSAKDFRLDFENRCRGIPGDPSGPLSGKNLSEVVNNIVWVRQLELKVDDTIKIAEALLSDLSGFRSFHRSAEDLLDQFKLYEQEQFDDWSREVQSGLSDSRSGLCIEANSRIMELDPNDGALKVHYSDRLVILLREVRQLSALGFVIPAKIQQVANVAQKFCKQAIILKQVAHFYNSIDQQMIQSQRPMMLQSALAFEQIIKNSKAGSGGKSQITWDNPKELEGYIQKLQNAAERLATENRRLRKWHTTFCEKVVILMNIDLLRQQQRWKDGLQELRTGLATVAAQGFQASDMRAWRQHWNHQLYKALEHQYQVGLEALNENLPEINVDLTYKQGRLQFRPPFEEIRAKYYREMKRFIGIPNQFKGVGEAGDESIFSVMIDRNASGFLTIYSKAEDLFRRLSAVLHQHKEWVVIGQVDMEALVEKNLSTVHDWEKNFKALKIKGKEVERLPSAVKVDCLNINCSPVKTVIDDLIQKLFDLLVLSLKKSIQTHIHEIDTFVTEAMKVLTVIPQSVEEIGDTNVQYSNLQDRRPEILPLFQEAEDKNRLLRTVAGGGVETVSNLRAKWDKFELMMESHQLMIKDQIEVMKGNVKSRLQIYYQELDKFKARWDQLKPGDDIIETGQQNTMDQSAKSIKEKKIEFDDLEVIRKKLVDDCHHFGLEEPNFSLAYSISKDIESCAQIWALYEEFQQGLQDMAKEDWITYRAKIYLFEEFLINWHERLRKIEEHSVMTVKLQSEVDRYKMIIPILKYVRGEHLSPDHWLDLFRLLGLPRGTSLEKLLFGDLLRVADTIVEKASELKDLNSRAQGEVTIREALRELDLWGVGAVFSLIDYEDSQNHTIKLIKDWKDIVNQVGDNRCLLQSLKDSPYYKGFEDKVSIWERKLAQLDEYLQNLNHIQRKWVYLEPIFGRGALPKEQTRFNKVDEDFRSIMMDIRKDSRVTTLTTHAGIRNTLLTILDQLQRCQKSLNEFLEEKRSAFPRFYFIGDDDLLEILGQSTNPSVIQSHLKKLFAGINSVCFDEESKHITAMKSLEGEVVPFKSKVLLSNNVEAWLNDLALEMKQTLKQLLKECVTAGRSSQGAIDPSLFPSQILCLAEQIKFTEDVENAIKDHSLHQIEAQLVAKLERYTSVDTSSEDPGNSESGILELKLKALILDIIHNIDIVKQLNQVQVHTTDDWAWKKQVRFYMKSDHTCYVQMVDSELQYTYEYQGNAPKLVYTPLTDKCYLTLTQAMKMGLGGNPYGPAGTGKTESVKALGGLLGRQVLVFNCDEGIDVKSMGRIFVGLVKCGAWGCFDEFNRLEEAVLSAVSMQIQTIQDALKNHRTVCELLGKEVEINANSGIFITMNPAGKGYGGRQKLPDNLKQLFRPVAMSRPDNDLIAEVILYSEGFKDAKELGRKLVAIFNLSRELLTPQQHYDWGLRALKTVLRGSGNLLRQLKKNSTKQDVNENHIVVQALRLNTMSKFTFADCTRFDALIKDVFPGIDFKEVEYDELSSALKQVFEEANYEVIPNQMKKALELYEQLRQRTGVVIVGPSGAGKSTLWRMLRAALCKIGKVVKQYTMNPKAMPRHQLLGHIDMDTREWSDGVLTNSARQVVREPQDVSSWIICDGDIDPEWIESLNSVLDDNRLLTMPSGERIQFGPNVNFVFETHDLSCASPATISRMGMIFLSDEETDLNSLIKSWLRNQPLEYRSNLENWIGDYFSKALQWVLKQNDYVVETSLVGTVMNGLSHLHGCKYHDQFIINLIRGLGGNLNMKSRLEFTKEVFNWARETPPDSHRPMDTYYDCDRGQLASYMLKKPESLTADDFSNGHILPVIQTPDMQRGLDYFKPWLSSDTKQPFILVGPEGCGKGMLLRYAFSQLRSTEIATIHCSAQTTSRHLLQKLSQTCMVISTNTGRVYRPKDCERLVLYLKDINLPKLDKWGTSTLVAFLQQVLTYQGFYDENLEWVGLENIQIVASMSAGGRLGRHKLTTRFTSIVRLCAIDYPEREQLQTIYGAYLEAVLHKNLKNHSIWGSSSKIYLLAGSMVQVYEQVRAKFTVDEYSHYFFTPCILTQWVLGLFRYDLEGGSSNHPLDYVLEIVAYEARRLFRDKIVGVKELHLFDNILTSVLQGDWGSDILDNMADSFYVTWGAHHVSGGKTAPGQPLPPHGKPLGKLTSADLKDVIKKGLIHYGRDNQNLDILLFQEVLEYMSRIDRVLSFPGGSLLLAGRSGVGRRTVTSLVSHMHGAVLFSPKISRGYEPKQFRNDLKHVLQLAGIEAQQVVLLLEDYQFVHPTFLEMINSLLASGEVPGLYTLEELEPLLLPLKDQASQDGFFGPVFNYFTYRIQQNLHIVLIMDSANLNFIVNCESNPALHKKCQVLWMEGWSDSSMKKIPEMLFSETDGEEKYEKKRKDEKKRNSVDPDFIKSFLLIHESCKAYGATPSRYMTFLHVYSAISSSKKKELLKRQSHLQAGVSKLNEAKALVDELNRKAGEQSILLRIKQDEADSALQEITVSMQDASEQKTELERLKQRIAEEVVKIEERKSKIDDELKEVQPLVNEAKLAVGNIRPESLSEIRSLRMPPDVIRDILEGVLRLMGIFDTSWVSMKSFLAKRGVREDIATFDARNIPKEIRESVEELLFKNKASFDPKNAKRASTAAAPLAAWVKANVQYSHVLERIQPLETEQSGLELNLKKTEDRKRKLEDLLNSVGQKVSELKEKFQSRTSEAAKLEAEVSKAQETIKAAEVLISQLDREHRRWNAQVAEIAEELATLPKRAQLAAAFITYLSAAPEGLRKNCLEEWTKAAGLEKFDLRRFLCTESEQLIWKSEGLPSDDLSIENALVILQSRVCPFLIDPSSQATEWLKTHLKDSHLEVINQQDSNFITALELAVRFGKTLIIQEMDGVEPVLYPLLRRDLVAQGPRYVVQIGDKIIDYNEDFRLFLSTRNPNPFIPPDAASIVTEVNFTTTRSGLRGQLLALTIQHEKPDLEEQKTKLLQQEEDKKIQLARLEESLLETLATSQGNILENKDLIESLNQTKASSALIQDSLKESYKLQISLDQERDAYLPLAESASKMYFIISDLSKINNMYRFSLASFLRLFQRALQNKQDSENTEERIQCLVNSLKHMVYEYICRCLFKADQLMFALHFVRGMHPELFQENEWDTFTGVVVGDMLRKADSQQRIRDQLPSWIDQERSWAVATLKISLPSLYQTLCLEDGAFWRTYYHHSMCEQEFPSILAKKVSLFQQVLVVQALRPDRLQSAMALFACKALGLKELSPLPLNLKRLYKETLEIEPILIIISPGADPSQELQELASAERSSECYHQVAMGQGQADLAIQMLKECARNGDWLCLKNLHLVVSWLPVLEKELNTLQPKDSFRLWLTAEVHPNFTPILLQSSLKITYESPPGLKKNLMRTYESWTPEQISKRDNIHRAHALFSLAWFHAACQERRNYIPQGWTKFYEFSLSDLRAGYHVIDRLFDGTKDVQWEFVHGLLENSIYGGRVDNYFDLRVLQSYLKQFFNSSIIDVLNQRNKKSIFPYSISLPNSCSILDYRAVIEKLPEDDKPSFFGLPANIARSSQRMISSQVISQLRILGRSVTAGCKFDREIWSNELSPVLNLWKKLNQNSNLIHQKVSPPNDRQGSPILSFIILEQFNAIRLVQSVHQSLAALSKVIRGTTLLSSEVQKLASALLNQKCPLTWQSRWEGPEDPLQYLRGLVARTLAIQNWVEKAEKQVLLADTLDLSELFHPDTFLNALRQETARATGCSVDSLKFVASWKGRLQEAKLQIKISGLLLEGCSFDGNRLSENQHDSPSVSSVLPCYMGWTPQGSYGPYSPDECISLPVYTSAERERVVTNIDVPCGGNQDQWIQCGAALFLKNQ
UniProt E9PY46: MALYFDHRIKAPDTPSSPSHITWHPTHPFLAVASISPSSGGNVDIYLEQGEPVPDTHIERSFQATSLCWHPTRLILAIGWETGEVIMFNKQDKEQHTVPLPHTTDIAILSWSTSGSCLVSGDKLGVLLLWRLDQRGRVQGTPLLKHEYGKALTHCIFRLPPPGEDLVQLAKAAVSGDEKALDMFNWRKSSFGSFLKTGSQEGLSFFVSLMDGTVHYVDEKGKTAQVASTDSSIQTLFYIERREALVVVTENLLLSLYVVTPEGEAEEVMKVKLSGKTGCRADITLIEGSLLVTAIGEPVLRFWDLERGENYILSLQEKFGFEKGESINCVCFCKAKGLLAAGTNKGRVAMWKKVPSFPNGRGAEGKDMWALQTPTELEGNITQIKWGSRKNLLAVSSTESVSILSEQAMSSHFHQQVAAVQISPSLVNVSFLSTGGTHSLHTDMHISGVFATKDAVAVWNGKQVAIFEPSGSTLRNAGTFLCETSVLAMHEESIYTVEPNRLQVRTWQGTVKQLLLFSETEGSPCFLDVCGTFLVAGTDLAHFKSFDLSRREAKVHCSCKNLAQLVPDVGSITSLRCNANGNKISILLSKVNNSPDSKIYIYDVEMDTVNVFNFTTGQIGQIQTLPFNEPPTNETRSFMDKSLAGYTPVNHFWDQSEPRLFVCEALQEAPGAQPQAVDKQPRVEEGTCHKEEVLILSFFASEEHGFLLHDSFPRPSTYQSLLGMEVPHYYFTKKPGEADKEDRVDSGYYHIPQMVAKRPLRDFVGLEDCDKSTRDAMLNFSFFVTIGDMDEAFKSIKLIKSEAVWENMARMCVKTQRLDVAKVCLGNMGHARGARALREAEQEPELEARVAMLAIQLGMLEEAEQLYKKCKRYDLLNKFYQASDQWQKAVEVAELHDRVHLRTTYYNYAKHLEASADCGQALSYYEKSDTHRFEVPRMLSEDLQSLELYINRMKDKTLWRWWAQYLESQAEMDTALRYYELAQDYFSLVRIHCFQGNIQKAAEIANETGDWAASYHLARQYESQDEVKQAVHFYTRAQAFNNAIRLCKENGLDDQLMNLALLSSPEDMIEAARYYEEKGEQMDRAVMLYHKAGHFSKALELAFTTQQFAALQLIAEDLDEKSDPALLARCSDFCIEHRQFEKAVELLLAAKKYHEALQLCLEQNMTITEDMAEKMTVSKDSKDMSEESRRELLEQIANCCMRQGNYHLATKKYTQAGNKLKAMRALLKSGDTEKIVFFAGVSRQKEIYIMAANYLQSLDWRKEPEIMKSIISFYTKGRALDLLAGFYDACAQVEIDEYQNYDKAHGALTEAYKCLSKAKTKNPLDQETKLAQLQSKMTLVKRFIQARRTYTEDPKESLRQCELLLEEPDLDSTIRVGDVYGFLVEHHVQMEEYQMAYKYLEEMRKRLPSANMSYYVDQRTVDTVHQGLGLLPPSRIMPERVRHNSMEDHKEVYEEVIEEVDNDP

T1: Centrosomal protein of 78 kDa (Cep78), endogenous mouse testicular protein (mouse (endogenous in testis)) (UniProt Q6IRU7)
T1 sequence: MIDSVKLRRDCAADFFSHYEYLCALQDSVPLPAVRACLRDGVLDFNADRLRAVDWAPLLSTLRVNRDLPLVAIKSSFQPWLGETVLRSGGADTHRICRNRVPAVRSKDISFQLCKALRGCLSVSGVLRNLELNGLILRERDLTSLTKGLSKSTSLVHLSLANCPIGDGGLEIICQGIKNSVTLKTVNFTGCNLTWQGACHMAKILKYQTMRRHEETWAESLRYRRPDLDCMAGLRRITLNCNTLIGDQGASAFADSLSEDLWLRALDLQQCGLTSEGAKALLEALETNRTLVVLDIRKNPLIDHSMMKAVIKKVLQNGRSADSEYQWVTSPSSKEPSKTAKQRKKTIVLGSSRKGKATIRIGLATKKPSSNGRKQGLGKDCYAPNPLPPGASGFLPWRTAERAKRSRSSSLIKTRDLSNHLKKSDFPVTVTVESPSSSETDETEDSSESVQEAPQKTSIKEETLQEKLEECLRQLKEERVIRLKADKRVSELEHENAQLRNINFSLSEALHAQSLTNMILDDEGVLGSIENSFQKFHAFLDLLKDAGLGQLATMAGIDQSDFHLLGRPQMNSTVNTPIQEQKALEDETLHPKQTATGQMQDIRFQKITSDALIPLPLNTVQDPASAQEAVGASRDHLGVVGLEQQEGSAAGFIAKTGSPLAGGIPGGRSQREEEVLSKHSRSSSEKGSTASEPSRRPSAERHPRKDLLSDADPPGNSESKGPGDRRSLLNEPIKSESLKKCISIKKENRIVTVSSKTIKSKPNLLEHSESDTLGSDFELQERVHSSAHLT

B1: Tetratricopeptide repeat protein 30A1 (protein, UniProt Q99J38 1-664)
chain: MAWQSSSKVPDGEFTAVVYRLIRDSRYSEAVQLLSAELQRSSRSRAGLSLLAYCYYRLQEFELAAECYEQLSQMHPELEQYRLYQAQALYKACLYPEATRVTFLLDNPAYQTRVLRLQAAIKYSEGDLPGARSLVEQLLSGEAGEDSGGENDPDGLVNMGCLLYKEGHYEAACSKFLAALQASGYQPDLSYNLALAYYSSRQYAPALKHIADIIERGIRQHPELGVGMTTEGIDVRSVGNTVVLHQTALIEAFNLKAAIEYQLRNFEVAQETLTDMPPRAEEELDPVTLHNQALMNMDAKPTEGFEKLQFLLQQNPFPPETFGNLLLLYCKYEYFDLAADVLAENAHLTYKFLTPYLYDFLDAMITCQTAPEEAFIKLDGLAGMLTEQLRRLTKQVQEARHNRDDEIIKKAMNEYDETLEKYIPVLMAQAKIYWNLENYPMVEKIFRKSVEFCNDHDVWKLNVAHVLFMQENKYKEAIGFYEPIVKKNYDNILSVSAIVLANLCVSYIMTSQNEEAEELMRKIEKEEEQLSYGDPDKKIYHLCIVNLVIGTLYCAKGNYDFGISRVIKSLEPYHKKLGTDTWYYAKRCFLSLLENMSKHMIVLCDGVVQECVQFLEYCELYGRNIPAVLEQPLEEERIHTGKNTVTYESRLLKALIYEVIGWNM
B2: EH domain-containing protein 1 (protein, UniProt Q9WVK4 1-534)
chain: MFSWVSKDARRKKEPELFQTVAEGLRQLYAQKLLPLEEHYRFHEFHSPALEDADFDNKPMVLLVGQYSTGKTTFIRHLIEQDFPGMRIGPEPTTDSFIAVMHGPTEGVVPGNALVVDPRRPFRKLNAFGNAFLNRFMCAQLPNPVLDSISIIDTPGILSGEKQRISRGYDFAAVLEWFAERVDRIILLFDAHKLDISDEFSEVIKALKNHEDKIRVVLNKADQIETQQLMRVYGALMWSLGKIINTPEVVRVYIGSFWSHPLLIPDNRKLFEAEEQDLFKDIQSLPRNAALRKLNDLIKRARLAKVHAYIISSLKKEMPNVFGKESKKKELVNNLGEIYQKIEREHQISSGDFPSLRKMQELLQTQDFSKFQALKPKLLDTVDDMLANDIARLMVMVRQEESLMPSQAVKGGAFDGTMNGPFGHGYGEGAGEGIDDVEWVVGKDKPTYDEIFYTLSPVNGKITGANAKKEMVKSKLPNTVLGKIWKLADVDKDGLLDDEEFALANHLIKVKLEGHELPADLPPHLIPPSKRRHE
B3: Sperm flagellar protein 1 (protein, UniProt Q99JL1 1-234)
chain: MESSVDEEALHQLYLWVDNIPLSRPKRNLSRDFSDGVLVAELIKFYFPKMVEMHNYVPANSLQQKLSNWGHLNRKVLNKLNFSVPDDVMRKIAQCSPGVVELVLIPLRQRLEERQRRQKLGVGSLQELAPQDSSGYMDMGLPQKVRGEGAPALGEQLREGRPLASRPPGYNQALQGDPSFVLQIAEKEQELLASQETVQVLQMKVKRLEHLLQLKNVRIDDLSRRLQQAERKQR
B4: Tetratricopeptide repeat protein 21B (protein, UniProt Q0HA38 1-1315)
chain: MDSQGLKTLINYYCQERYYHHVLLVASEGMKKYSSDPVFRFYHAYGTLMEGKAQEALREFEAIKNKQDVSLCSLMALMYVHKMSPNPDREAILELDTKMKEQRKEAGRKALYHAGLFLWHIGRHDKAREYIDRMSKMPHDSNEGPILKAWLDITRGKEPYAKKALRYFEEGLQDGNDIFALLGKVLCLEIRQNYSGALETVSQIIVNFPSFLPAFEKKMKLQLALQDWDQTVETAQRLLLQDNHNVEALRMLALYYLCREGDVEKAATKLENLGNALDVMEPQNAQLFYKITLAFSRTCGRNQLILQKVQSFLEKAFSLTPQQAEIATELGYQMILQGKVKEAWKWYRTAMTLNESNISAVTGLIRCQLIEGQLQDADQQLEFFSEFQQSMGKSAELMYLHAVLATKKNNRQDEVINLLNDVVNTHFSHLEDLPLGIQYFEKLNPDFLLEVVTEYLNLCPIQPAGPGQPLSPVLRRCSSVLETIIRSVPGLPQAVFLMAKVKYLSGDTEAAYNNLQHCLEHSPSYAEAHLLMAQVYLSQDKVKLCSQSLELCLSYNFNVREYPLYHLIKAQSQKKMGEVAEAIKTLHMAMNLPGMRRSRASSKSKHRTEVDASHRLSIFLELVEVHRLNGEQHEAAKVLQDAIHEFSGTCEELRVTIANADLALAQGDTDRALSMLRNVTTEQPYFIEAKEKMADIYLKHRKEKMLYITCYREIAERMPSPRSFLLLGDAYMNIQEPEEAIVAYEQALNQNPKDGTLARKIGKALVKTHNYSKAITYYEAALKSGQQNCLCYDLAELLLRLKLYEKAEKVLQHSLAHEPVSELSALMVDGRSQVLLAKVYSKMERPSDAIAALQQARELQARILKRVQMEQPDAVPSQKHFAAEICAEIAKHSAAQRDYEKAITFYREALVHCETDSKIMLELAQLYLAQEDLDASLRHCALLLQRDQDNEPATMLMADLMFRKQDYEQAVYHLQQLLDRKPDNFMTLSRLIDLLRRCGKLEDVPRFFLMAEKHNSRTKLEPGFQYCKGLHFWYTGEPNDALRHFNKARKDSDWGQNALYNMIEICLNPDNETIGGEVFENLNGDLGTSPEKQESVQLAVRTAEKLLKELKPQTVQGRLQLRIMENCCLMATKQKSSVEQALNTFTEIAASEKDHIPALLGMATAYMILKQTPKARNQLKRIAKMPWNPIEAEDLEKSWLLLADIYIQSAKYDMAEELLKRCLCHNRSCCKAYEYMGYIMEKEQAYTDAAFNYEMAWKHSNQTNPAVGYKLAFNYLKAKRYVDAIDVCHQVLEAHPTYPKIRKDILDKARASLRP
B5: Tetratricopeptide repeat protein 21 A (Ttc21a), endogenous mouse testicular protein (protein, UniProt Q8C0S4 1-1314)
chain: MSSDDSSLMASIIYYSQEKYFHHVLQAANVGLERYSSDPALQFFRAYGILGEDHIHDAISELEGIQSHPDTSLCAVIALLSAHKSCDTIDIEAVQELESSLKEIRRSASSTALYYASLFLWFMGHHDKAREYVDHMLKVSSGSKEGYVLKGWVDLTSSKPHVVKKSIKYLEQGTQDTKDVLGLMGKATYFMTQQNFSGALEVANQVTLACSNFLPALVLKMKLFLARQDWDQTIETGQRILEKDENNIDAWQILAVHELVKEGNTDRAADRVRNLIKALETGEPHNPNLHLKKILVISRLCGRHQVVHRLVSGFLERIFMATPSCALVATELGYLFILHQQVKEACLWYKEAMKLEENRLAALAGSIWCQILQGQLEEAAHQLEFLKEVQQSLGKSELLVFLQALVAAKKQRLEQEATALLKEAVEVHFSSMQGLALSPEYFEKLDPLFLVCIAKEYLHFCPKQPRSPGQLVSPLLKQVAMILSPVVKVAPAMMEPLYVTAQVKFLSGELENAQSTLQRCLELDPTFVDAHLLMSQIYLAQGNFAMCSHCLELGVSHNFQVRDHPLYHFIKARALNKTGDYAEAIKTLKMIIKVPTSKAEEGRKSQSPSVRPSERASILLELVEALRLNGELHEATKIMQDAINEFSGTPEEMRITVANVDLALSKGNVDLALNMLRGITPKQPCYTEAKEKMASIYLHTRKDVRLYIGCYVELCEHLPGPHSSLLLGDAFMNIQEPEKALEVYDEAYRKNPHDASLVSRIGQAYVKTHQYAKAINYYEAAQKISGQDFLCCELAELLLKLKKYHKAEKVLKQALERDSGVKDIPSMINEVKCLLLLAKVYKSHKKEEVMETLNLALDLQSRILKRVPLEQSEMIPFQNQLAASICIQIGEHHLAEKDYDSALKSYKDALAYSPTDSKVVLELAHLYLLLGQLDLCEQRCAPLLEMEQTHERAAVMLADLMFRRQNYETAINLYHQVLEKAPDNFLVLNKLVDLLRRSGKLEEAPAFFELAKKVSSRVPLEPGFNYCQGIYFWHIGQPNEALRFLNKARKDSTWGQLATCYMVQICLNPDNEIVGGEAFESLVGDSNSASRKESQQHGVRTAEKLLREFYPHSESGQTQLRLLQNLCLLATREKANVEVALGAFIEMAQAEKDSIPALLAMAQAYILLKQVPKARTQLKRLAKVPWTVDEAEDLEKSWLLLADIYCQGGKFDLALELLRRCLQYNKSCCRAYEYMGFIMEKEQSYKDAATNYELAWKYSHQANPAIGFKLAFNYLKDKKFVDAIEVCHSVLTEHPKYPKIREEILEKAQGSLRP
B6: ATP-dependent 6-phosphofructokinase, muscle type (protein, UniProt P47857 1-780)
chain: MTHEEHHAAKTLGIGKAIAVLTSGGDAQGMNAAVRAVVRVGIFTGARVFFVHEGYQGLVDGGEHIREATWESVSMMLQLGGTVIGSARCKDFREREGRLRAAHNLVKRGITNLCVIGGDGSLTGADTFRSEWSDLLNDLQKDGKITAEEATKSSYLNIVGLVGSIDNDFCGTDMTIGTDSALHRIVEIVDAITTTAQSHQRTFVLEVMGRHCGYLALVTSLSCGADWVFIPECPPDDDWEEHLCRRLSETRTRGSRLNIIIVAEGAIDKNGKPITSEDIKNLVVKRLGYDTRVTVLGHVQRGGTPSAFDRILGSRMGVEAVMALLEGTPDTPACVVSLSGNQAVRLPLMECVQVTKDVTKAMDEKRFDEAIKLRGRSFMNNWEVYKLLAHVRPPVSKGGLHTVAVMNVGAPAAGMNAAVRSTVRIGLIQGNRVLVVHDGFEGLAKGQIEEAGWSYVGGWTGQGGSKLGTKRTLPKKNLEQISANITKFNIQGLVIIGGFEAYTGGLELMEGRKQFDELCIPFVVIPATVSNNVPGSDFSIGADTALNTICTTCDRIKQSAAGTKRRVFIIETMGGYCGYLATMAGLAAGADAAYIFEEPFTIRDLQVNVEHLVQKMKTTVKRGLVLRNEKCNENYTTDFIFNLYSEEGKGIFDSRKNVLGHMQQGGSPTPFDRNFATKMGAKAMNWMSGKIKESYRNGRIFANTPDSGCVLGMRKRALVFQPVTELKDQTDFEHRIPKEQWWLKLRPILKILAKYEIDLDTSDHAHLEHISRKRSGEAAV

Molecular target: T1, Centrosomal protein of 78 kDa (Cep78), endogenous mouse testicular protein (mouse (endogenous in testis))
Assay: affinity purification with mass spectrometry; anti-Cep78 (custom antibody against p457-741 of mouse Cep78) immunoprecipitation from testicular lysates of Cep78^+/− and Cep78^−/− mice, Pierce IP lysis buffer, Pierce co-IP kit, quantitative LC-MS of silver-stained gel lanes

binding, binds:
Intraflagellar transport protein 20 homolog (Ift20), endogenous mouse testicular protein (from UniProt Q61025 1-132)
Cytoplasmic dynein 2 heavy chain 1 (from UniProt Q45VK7 1-4306)
Intraflagellar transport protein 140 homolog (from UniProt E9PY46 1-1464)
B1
B2
B3
B4
B5
B6
